The whole screen tested about 52,000 sequences, of which about 210 (0.4%) were called active.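 Rule for the calls: active = gene whose silencing raises cell survival under the drug, median off-target-corrected z-score across its silencing RNAs 2 or more; inactive = the rest.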 This is one part of the list.
assay: Resistance to Poly (ADP-Ribose) Polymerase inhibitor: Gene Identification via Genome-wide siRNA Screen; settings: mouse BRCA2 R2336H ES cells, olaparib, CellTiter-Glo viability; hits give high values
In short: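 Mouse BRCA2 R2336H ES cells were reverse-transfected with siRNA (20 nM final), treated at 48 h with 500 nM olaparib, and read by CellTiter-Glo after 72 h. Scores: MAD-based z per siRNA, median per gene, seed off-target correction.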

Sequence	z-score
GGAUAGGUUUCUGUAUUUATT against Znrf1	inactive: 0.0701
GGCUUAUUGUAGAAAAUCUTT against Sfrs6	inactive: -0.678
GGAUGAAACACAACUGCACTT against Ctsz	inactive: 1.45
GGCGUGAAGAAGUUUGAUGTT against Pklr	inactive: -0.195
GCCUCGAUUGGCCACAUUUTT against Atp5l	inactive: -2.55
CCUCAAACCAUCAACAACCTT against Six3	inactive: -0.853
GGACAGUGAACUUUUGACCTT against C030019F02Rik	inactive: 0.758
GGGAUUCCAGACAUGGGAATT against Dibd1	inactive: 0.152
CCUACAGUGACCUUUCCCGTT against Apcs	inactive: -0.238
GGAACACAAUAGUACAUACTT against Slc2a4	inactive: 0.313
GGGUGGUGUUUUAACCCUUTT against Mep1b	inactive: 1.34
GGAGAUCUACUUUCUCAACTT against Crtac1	inactive: 0.137
GGAGCUUGUGAACACCUUCTT against Nudc	inactive: -2.46
GGCAAUCUGGAACAACAUATT against Tmem16f	inactive: -0.837
CGGAGCCAAAUACGAAGGGTT against Jph3	inactive: 0.0354
GUGACAAGAGAAGUCAAAATT against Ear1	inactive: 1.63
CGUGUGGUAACUUGAAGGGTT against LOC434484	inactive: -0.774
GCACUACACCUCCAGUUCGTT against Gne	inactive: -0.224
GCCAGAAGAGCAGAAAGUUTT against Enpp5	inactive: 0.271
GGAAGAGAGCAGAAAGAAGTT against Trim35	inactive: -0.536
GGGAUAAGUACUCUGCUAATT against Sorcs3	inactive: -0.318
GGGUAGACCUCAAUGAUAUTT against D930047P17Rik	inactive: -0.084

4 entries picked at random from those above, as already listed:
Sequence	z-score
GGAUAGGUUUCUGUAUUUATT against Znrf1	inactive: 0.0701
CGUGUGGUAACUUGAAGGGTT against LOC434484	inactive: -0.774
GGAAGAGAGCAGAAAGAAGTT against Trim35	inactive: -0.536
GGGUGGUGUUUUAACCCUUTT against Mep1b	inactive: 1.34

(further entries)

Sequence	z-score
GGAAGUUGUGUGACAGAAATT against 9230106L18Rik	inactive: -0.79
GGAUGGGUCAAUGUUCUACTT against V1rb6	inactive: -0.923
GGGCUGUUUGGAAUAAUAATT against Gmppb	inactive: -1.59
GCAUGUUGUCGACACAUGCTT against Bcl6	inactive: 0.541
GGACAUACAAAUCUUCAUUTT against Mta2	inactive: -0.311
GGUACACGUCUUGUCUCUGTT against Spry2	inactive: -1.13
GGUCUGCCUUUGAAAAAAATT against Bckdha	inactive: -0.0859
GGGAAGAAGACUGACAAGCTT against Lars	inactive: 0.068
GCAGGUGUAUACUAUGUUATT against G6pc	inactive: -1.08
CCGCUACAGGUUUACCAAGTT against LOC434768	inactive: -0.0796
GCAGAAAUACGAAAUCAACTT against Tnnt2	inactive: -0.702
GGAACCAGUUUAAAUGAUUTT against Axot	inactive: -0.0255
GCACAAGUUCAGAAAUGAATT against 1700011J10Rik	inactive: 0.797
GCACUUUUUUGCUGCUGAUTT against Olfr1263	inactive: 0.985
GGUCUAGAGUUACCAUUCATT against Aqp9	inactive: -2.28
GCCUACGUUACCUUGAUCCTT against AW210596	inactive: -0.756
GGUAACAUACUAAAAGAAGTT against V2r16	inactive: -1.42
CGGGCUGGGAAGUUGUUAGTT against Bcl10	inactive: 0.984
CCGUGACCUAUAACGAAGATT against 1110008B24Rik	inactive: 0.678
GCAUAGGCCUUAGUUCUGCTT against D17Ertd441e	inactive: -2.74
CCUAGUUGAAAAUUGGGAATT against 0610025O11Rik	inactive: -0.794
GACUUCAAACAAAUGGUGCTT against Sprrl9	inactive: 0.228

Sequence	z-score
GCCUCAGUAUUGGUGCUCUTT against A930021C24Rik	inactive: -0.324
CGCAGUGGACUCAUCUUGATT against Sestd1	inactive: 0.735
GGAGGUGGUAUGUUUUAUATT against AI461788	inactive: -0.249
GGACUUAAUCCCAUGGAGCTT against C730027P07Rik	inactive: 0.336
GGACAAGGAAUACUACGAGTT against Ltbr	inactive: 1.78
GCAAAGGAAUCCUUUUCACTT against 5930406N14Rik	inactive: 0.222
CGUUUGCCUGGUACCUUACTT against 1110028A07Rik	inactive: -1.36
CGUUGGUUAUUAGUUGAUUTT against Luc7l2	inactive: -0.0763
GGAGCAUUUUGGAUAAGAUTT against Nup88	inactive: -1.8
GGACAUUUAAGUGACUUGUTT against Dtnbp1	inactive: 1.5
CGAAAUCAGAACCUGGGAATT against AW742319	inactive: -1.44
GGAUUUUCGAUUCUCUUACTT against Glg1	inactive: 0.174
CCGUCCGAUGAAAAACAGGTT against Prm1	inactive: 0.593
GCGAGAGAUUCUUUCCCUGTT against Traf6	inactive: -0.675
GGGACUUUUUUUCAAACACTT against 2900026A02Rik	inactive: 0.273
CGGCAGUCAGCAAAACAAATT against Pnpt1	inactive: 0.259
GCAGAUUGCAUCGGAAGAATT against BC061237	inactive: -0.551
GGGAAACCACAGUAGUCUGTT against Gyk	inactive: 0.391
GCUCAAUGCUUUCUUGUCATT against 0610010F05Rik	inactive: -0.444
GGAAAUUCUGGCAUAAAUUTT against Cd86	inactive: -0.473
GGUAACAAAUAAAGGAUACTT against Dgke	inactive: 0.833
CCUGGUUAGAGCAAGGAUGTT against 2900084M01Rik	inactive: 1.49

Source: PubChem BioAssay AID1347423 (Functional Genomics Laboratory (NCATS/FGL), 2020)
